At least one structure is not confirmed: it was looked up by name or label, or the drawing left a doubt.
Experiment: Stability of aloesin in plasma samples (LC-MS/MS quality control samples)
Type: in vitro ADME, rat
Conditions: 3, 50, 500 ng·mL^-1 in plasma; all four placement conditions
Experimental: Prepare 3 concentrations of aloesin quality control samples (500 ng·mL^−1, 50 ng·mL^−1, 3 ng·mL^−1) with blank plasma, and examine the stability under the following conditions.
(1) After the sample is processed, it is placed in the autosampler for 8 hours, and then the sample is injected for analysis;
(2) The sample is processed after 3 freeze-thaw cycles, and the sample is injected for analysis;
(3) The sample is placed at room temperature for 4 hours and then comes out, and the sample is injected for analysis;
(4) The sample is processed after the sample is stored at −20° C. for 15 days, and then the sample is injected for analysis.
The stability inspection is qualified.

CC(=O)Cc1cc(=O)c2c(C)cc(O)c([C@@H]3O[C@H](CO)[C@@H](O)[C@H](O)[C@H]3O)c2o1 [aloesin]
test accuracy of each concentration sample (stability investigation): 94.66% and 109.60
